No constants are given. Whether binding was seen depends on the method and setting. In cells and extracts the contact can be indirect. Some binding calls cover weakened binding; strength is not graded here.
Target: T1, beta-Dg (DAG1), β-dystroglycan, mouse (mouse (endogenous in tibialis anterior muscle)) (UniProt Q62165)
T1 sequence: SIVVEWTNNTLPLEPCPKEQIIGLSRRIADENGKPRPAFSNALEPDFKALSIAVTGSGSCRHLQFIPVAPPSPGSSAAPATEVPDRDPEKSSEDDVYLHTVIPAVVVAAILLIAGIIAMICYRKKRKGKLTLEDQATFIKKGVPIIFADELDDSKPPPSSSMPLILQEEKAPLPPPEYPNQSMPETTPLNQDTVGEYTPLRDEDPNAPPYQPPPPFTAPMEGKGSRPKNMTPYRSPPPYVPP
Test: co-IP; β-dystroglycan antibody (MANDAG2, clone 7D11) added to whole-cell extracts of mouse tibialis anterior muscle overnight at 4 °C, protein A/G agarose; washes with buffers up to 500 mM NaCl, 0.1% SDS, 0.1% Triton; control mouse IgG; immunoblot with Kibra antibody

Protein sequences, listed by entry. Tags and fused reporters are not part of them.
UniProt Q5SXA9: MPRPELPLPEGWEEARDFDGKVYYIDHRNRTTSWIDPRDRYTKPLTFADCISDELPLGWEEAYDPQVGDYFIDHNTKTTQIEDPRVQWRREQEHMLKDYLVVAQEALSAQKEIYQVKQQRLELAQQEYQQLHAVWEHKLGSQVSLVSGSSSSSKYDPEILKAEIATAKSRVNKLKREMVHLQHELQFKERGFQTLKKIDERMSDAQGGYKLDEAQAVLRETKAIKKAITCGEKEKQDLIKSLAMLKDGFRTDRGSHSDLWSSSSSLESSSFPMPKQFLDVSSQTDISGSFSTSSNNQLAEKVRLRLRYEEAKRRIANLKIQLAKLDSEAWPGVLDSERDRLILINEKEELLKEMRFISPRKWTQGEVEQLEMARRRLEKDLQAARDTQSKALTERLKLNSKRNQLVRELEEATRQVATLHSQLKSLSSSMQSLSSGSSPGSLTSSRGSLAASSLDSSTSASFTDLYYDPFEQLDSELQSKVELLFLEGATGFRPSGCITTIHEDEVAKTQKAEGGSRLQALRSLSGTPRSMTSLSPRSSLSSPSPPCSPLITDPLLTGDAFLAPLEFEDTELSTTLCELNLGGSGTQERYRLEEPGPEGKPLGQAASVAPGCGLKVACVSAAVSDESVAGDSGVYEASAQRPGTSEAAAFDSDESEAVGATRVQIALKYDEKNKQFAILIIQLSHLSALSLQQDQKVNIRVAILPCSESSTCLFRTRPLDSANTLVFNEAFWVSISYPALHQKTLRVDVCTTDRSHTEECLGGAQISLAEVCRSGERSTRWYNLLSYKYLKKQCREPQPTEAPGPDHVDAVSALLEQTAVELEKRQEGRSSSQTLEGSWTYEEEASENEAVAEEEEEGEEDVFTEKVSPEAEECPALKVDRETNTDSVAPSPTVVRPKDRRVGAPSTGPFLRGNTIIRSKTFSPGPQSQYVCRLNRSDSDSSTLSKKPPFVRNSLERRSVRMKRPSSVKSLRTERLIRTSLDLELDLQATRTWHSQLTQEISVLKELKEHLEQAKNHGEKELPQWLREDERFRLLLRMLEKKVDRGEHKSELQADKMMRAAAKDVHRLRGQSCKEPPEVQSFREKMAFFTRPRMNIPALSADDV

Kibra (Kbr), mouse (from UniProt Q5SXA9 1-1104)
binding: binds
